Reference: article doi:10.1101/2024.09.30.615666
Where two headings read alike, the source gives them in different places. Results are given in words; binding and its absence hold for the method and conditions named. Binding seen in cells or lysates may run through a third protein. Some results given as binding are weak or reduced against the parent protein; the word gives no strength.

Protein sequences, listed by entry. Tags and fused reporters are not part of them. Residues count along the entry.
UniProt P49790: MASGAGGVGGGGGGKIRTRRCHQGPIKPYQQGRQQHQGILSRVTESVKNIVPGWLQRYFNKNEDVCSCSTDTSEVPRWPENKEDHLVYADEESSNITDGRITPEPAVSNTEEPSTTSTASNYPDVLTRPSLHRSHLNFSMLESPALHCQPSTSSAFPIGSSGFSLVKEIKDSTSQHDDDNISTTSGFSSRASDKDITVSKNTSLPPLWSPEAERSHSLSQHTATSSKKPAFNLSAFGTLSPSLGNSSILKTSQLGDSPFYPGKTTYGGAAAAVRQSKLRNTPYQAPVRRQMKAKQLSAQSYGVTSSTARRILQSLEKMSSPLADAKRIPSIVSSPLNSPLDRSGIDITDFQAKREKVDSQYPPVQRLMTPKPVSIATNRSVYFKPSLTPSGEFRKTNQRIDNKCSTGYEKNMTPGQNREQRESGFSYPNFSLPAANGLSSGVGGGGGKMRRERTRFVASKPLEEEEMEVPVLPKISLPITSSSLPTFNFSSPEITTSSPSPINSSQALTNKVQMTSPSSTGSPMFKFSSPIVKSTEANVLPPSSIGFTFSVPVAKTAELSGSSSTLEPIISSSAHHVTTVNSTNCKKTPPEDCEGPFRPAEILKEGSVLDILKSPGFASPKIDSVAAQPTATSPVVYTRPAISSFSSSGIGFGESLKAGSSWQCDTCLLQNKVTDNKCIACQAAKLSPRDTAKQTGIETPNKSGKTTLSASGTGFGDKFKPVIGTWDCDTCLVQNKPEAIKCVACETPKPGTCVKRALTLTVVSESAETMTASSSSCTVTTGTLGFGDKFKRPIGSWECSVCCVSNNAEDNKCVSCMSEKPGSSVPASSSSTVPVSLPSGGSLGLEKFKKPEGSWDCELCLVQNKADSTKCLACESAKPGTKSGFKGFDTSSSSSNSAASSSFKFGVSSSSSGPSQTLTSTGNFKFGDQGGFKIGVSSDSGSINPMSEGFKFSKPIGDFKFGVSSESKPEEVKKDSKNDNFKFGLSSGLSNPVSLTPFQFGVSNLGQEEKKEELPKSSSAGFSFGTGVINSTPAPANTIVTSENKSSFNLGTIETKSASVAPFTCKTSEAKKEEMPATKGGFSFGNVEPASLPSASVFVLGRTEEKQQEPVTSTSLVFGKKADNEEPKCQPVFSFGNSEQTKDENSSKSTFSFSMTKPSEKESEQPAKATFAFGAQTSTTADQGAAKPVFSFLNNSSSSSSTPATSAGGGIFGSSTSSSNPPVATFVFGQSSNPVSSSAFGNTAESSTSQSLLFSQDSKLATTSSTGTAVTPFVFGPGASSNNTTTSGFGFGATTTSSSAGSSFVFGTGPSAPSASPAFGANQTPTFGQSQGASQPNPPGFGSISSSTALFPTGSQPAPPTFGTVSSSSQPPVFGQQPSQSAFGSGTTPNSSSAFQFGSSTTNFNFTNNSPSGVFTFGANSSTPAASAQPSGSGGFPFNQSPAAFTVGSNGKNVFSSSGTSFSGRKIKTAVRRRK
UniProt P52948, residues 1-880: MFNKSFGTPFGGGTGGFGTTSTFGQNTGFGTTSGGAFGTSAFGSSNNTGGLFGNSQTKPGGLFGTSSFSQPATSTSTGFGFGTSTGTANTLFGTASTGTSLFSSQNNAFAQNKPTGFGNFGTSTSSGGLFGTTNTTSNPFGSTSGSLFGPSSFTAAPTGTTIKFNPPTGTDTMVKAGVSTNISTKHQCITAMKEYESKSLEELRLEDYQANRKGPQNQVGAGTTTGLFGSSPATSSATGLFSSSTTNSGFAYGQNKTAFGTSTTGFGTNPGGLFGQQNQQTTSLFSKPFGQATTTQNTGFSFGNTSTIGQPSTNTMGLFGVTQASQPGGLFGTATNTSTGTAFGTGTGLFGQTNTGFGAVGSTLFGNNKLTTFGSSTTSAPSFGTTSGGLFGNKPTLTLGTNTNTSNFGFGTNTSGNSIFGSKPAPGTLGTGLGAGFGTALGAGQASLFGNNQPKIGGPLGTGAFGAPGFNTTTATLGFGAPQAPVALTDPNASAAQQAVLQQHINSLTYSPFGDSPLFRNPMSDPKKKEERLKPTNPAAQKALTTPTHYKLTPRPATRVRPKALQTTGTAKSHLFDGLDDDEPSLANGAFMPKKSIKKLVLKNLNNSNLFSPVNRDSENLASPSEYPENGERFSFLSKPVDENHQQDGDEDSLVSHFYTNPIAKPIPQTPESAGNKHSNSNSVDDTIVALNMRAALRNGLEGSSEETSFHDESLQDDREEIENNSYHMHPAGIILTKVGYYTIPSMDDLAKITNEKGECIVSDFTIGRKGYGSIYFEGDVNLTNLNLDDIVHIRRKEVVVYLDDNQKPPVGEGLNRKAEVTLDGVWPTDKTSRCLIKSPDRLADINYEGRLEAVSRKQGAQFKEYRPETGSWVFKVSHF

B1: AQR (protein, UniProt O60306 1-1485)
chain: MAAPAQPKKIVAPTVSQINAEFVTQLACKYWAPHIKKKSPFDIKVIEDIYEKEIVKSRFAIRKIMLLEFSQYLENYLWMNYSPEVSSKAYLMSICCMVNEKFRENVPAWEIFKKKPDHFPFFFKHILKAALAETDGEFSLHEQTVLLLFLDHCFNSLEVDLIRSQVQQLISLPMWMGLQLARLELELKKTPKLRKFWNLIKKNDEKMDPEAREQAYQERRFLSQLIQKFISVLKSVPLSEPVTMDKVHYCERFIELMIDLEALLPTRRWFNTILDDSHLLVHCYLSNLVRREEDGHLFSQLLDMLKFYTGFEINDQTGNALTENEMTTIHYDRITSLQRAAFAHFPELYDFALSNVAEVDTRESLVKFFGPLSSNTLHQVASYLCLLPTLPKNEDTTFDKEFLLELLVSRHERRISQIQQLNQMPLYPTEKIIWDENIVPTEYYSGEGCLALPKLNLQFLTLHDYLLRNFNLFRLESTYEIRQDIEDSVSRMKPWQSEYGGVVFGGWARMAQPIVAFTVVEVAKPNIGENWPTRVRADVTINLNVRDHIKDEWEGLRKHDVCFLITVRPTKPYGTKFDRRRPFIEQVGLVYVRGCEIQGMLDDKGRVIEDGPEPRPNLRGESRTFRVFLDPNQYQQDMTNTIQNGAEDVYETFNIIMRRKPKENNFKAVLETIRNLMNTDCVVPDWLHDIILGYGDPSSAHYSKMPNQIATLDFNDTFLSIEHLKASFPGHNVKVTVEDPALQIPPFRITFPVRSGKGKKRKDADVEDEDTEEAKTLIVEPHVIPNRGPYPYNQPKRNTIQFTHTQIEAIRAGMQPGLTMVVGPPGTGKTDVAVQIISNIYHNFPEQRTLIVTHSNQALNQLFEKIMALDIDERHLLRLGHGEEELETEKDFSRYGRVNYVLARRIELLEEVKRLQKSLGVPGDASYTCETAGYFFLYQVMSRWEEYISKVKNKGSTLPDVTEVSTFFPFHEYFANAPQPIFKGRSYEEDMEIAEGCFRHIKKIFTQLEEFRASELLRSGLDRSKYLLVKEAKIIAMTCTHAALKRHDLVKLGFKYDNILMEEAAQILEIETFIPLLLQNPQDGFSRLKRWIMIGDHHQLPPVIKNMAFQKYSNMEQSLFTRFVRVGVPTVDLDAQGRARASLCNLYNWRYKNLGNLPHVQLLPEFSTANAGLLYDFQLINVEDFQGVGESEPNPYFYQNLGEAEYVVALFMYMCLLGYPADKISILTTYNGQKHLIRDIINRRCGNNPLIGRPNKVTTVDRFQGQQNDYILLSLVRTRAVGHLRDVRRLVVAMSRARLGLYIFARVSLFQNCFELTPAFSQLTARPLHLHIIPTEPFPTTRKNGERPSHEVQIIKNMPQMANFVYNMYMHLIQTTHHYHQTLLQLPPAMVEEGEEVQNQETELETEEEAMTVQADIIPSPTDTSCRQETPAFQTDTTPSETGATSTPEAIPALSETTPTVVGAVSAPAEANTPQDATSAPEETK
B2: XAB2 (protein, UniProt Q9HCS7 1-855)
chain: MVVMARLSRPERPDLVFEEEDLPYEEEIMRNQFSVKCWLRYIEFKQGAPKPRLNQLYERALKLLPCSYKLWYRYLKARRAQVKHRCVTDPAYEDVNNCHERAFVFMHKMPRLWLDYCQFLMDQGRVTHTRRTFDRALRALPITQHSRIWPLYLRFLRSHPLPETAVRGYRRFLKLSPESAEEYIEYLKSSDRLDEAAQRLATVVNDERFVSKAGKSNYQLWHELCDLISQNPDKVQSLNVDAIIRGGLTRFTDQLGKLWCSLADYYIRSGHFEKARDVYEEAIRTVMTVRDFTQVFDSYAQFEESMIAAKMETASELGREEEDDVDLELRLARFEQLISRRPLLLNSVLLRQNPHHVHEWHKRVALHQGRPREIINTYTEAVQTVDPFKATGKPHTLWVAFAKFYEDNGQLDDARVILEKATKVNFKQVDDLASVWCQCGELELRHENYDEALRLLRKATALPARRAEYFDGSEPVQNRVYKSLKVWSMLADLEESLGTFQSTKAVYDRILDLRIATPQIVINYAMFLEEHKYFEESFKAYERGISLFKWPNVSDIWSTYLTKFIARYGGRKLERARDLFEQALDGCPPKYAKTLYLLYAQLEEEWGLARHAMAVYERATRAVEPAQQYDMFNIYIKRAAEIYGVTHTRGIYQKAIEVLSDEHAREMCLRFADMECKLGEIDRARAIYSFCSQICDPRTTGAFWQTWKDFEVRHGNEDTIKEMLRIRRSVQATYNTQVNFMASQMLKVSGSATGTVSDLAPGQSGMDDMKLLEQRAEQLAAEAERDQPLRAQSKILFVRSDASREELAELAQQVNPEEIQLGEDEDEDEMDLEPNEVRLEQQSVPAAVFGSLKED
B3: ISY1 (protein, UniProt Q9ULR0 1-285)
chain: MARNAEKAMTALARFRQAQLEEGKVKERRPFLASECTELPKAEKWRRQIIGEISKKVAQIQNAGLGEFRIRDLNDEINKLLREKGHWEVRIKELGGPDYGKVGPKMLDHEGKEVPGNRGYKYFGAAKDLPGVRELFEKEPLPPPRKTRAELMKAIDFEYYGYLDEDDGVIVPLEQEYEKKLRAELVEKWKAEREARLARGEKEEEEEEEEEINIYAVTEEESDEEGSQEKGGDDSQQKFIAHVPVPSQQEIEEALVRRKKMELLQKYASETLQAQSEEARRLLGY

How the values were obtained:
[1] = target: Nup153 (human (endogenous in Jurkat and HEK293T)) (UniProt P49790); assay: proximity ligation
[2] = target: Nup98 (human (endogenous in Jurkat)) (UniProt P52948); assay: proximity ligation
[3] = target: Nup153 (human (endogenous in Jurkat and HEK293T)) (UniProt P49790); assay: proximity ligation; remark: listed apart in the source
eGFP:Nup153 = eGFP:Nup153 (UniProt P49790); assay: co-IP

| Binder | binding [1] | binding [2] | binding [3] | binding (eGFP:Nup153) |
| --- | --- | --- | --- | --- |
| B1 | binds | binds | binds | binds |
| B2 | binds |  |  | binds |
| B3 |  |  |  | binds |
